Results: publication PMC5875879
No constants are given. Whether binding was seen depends on the method and setting. In cells and extracts the contact can be indirect. Some entries that bind do so weakly or less than the wild type. For some assays here: Sequences can lack the tags named with a protein.

By UniProt entry, the sequences of proteins in these tests, tags left out.
UniProt O60293: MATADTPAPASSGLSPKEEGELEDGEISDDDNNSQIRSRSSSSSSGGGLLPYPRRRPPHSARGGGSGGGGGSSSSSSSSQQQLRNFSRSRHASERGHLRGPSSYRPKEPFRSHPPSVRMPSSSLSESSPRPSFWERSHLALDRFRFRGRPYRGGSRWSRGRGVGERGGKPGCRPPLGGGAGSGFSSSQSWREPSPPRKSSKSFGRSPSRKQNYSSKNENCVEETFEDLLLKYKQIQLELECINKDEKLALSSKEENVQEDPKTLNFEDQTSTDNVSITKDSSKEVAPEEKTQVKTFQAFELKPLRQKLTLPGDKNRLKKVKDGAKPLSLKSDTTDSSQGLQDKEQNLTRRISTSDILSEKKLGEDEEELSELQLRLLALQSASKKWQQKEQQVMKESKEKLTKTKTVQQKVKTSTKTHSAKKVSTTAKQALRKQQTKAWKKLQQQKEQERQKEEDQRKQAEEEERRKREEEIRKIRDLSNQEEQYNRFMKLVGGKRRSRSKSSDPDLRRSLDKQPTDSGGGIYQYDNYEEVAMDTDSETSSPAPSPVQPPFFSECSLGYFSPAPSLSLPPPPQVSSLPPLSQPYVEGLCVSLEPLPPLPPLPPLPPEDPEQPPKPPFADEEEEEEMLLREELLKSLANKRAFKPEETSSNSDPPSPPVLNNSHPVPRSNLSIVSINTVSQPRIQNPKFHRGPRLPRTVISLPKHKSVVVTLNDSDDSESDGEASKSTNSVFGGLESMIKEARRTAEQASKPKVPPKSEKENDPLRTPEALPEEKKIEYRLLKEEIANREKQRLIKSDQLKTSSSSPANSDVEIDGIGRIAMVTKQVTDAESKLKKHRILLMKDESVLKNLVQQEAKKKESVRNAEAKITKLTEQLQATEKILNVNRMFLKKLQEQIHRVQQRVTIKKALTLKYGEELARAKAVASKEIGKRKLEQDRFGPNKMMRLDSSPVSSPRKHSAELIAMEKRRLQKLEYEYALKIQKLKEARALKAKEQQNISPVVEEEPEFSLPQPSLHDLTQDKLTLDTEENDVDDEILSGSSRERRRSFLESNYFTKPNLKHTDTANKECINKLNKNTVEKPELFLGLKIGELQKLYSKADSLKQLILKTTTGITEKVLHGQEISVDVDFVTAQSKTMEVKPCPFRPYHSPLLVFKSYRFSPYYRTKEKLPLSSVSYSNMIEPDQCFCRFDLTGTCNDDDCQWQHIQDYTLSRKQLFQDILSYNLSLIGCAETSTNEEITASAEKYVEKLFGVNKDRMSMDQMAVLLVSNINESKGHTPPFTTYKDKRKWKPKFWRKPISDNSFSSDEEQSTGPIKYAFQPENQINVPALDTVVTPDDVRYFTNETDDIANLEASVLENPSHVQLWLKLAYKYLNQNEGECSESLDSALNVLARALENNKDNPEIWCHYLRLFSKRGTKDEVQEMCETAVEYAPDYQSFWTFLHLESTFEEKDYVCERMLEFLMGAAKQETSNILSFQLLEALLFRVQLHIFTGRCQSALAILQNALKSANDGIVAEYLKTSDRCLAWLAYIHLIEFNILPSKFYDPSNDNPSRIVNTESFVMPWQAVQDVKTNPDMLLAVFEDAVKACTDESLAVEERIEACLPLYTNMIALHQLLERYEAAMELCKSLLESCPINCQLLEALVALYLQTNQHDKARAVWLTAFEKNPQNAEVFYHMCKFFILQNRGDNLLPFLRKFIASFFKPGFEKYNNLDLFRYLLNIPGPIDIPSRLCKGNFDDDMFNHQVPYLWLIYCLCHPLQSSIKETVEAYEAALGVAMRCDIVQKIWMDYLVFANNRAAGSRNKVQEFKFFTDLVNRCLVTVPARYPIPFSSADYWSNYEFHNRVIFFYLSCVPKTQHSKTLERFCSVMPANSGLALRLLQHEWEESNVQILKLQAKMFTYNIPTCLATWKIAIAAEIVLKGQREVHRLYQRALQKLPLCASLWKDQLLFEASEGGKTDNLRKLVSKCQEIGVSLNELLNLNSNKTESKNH

How the values were obtained:
Flag-HA-MTR4 [1] = target: T1, Flag-HA-MTR4 (UniProt P42285); assay: co-IP
T1 sequence: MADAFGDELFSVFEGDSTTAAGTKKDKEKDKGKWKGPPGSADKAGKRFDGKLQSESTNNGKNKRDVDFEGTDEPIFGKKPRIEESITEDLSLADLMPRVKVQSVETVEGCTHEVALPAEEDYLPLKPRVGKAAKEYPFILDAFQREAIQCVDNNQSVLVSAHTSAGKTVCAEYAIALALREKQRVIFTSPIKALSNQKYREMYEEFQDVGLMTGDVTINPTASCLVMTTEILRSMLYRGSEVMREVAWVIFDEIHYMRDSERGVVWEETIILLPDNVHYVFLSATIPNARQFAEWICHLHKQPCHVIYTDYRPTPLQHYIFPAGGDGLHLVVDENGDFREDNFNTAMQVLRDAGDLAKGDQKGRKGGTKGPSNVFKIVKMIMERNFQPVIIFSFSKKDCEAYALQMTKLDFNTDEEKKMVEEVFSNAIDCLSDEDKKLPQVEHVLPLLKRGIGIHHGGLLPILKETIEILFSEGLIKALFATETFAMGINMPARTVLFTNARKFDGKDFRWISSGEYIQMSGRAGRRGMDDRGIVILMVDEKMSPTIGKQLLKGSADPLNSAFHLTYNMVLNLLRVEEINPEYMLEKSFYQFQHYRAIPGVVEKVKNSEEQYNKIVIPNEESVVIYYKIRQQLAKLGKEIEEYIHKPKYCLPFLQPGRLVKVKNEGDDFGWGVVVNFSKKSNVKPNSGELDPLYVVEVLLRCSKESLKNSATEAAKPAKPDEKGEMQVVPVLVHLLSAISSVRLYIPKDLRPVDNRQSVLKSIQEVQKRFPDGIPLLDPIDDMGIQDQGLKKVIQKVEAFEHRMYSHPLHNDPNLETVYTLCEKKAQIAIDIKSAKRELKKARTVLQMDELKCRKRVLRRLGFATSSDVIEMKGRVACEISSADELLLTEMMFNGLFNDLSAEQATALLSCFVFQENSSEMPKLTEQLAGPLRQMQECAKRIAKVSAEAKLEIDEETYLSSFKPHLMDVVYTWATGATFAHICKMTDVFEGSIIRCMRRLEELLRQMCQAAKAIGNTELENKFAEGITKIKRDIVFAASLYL

[2] = target: T2, MTR4 (endogenous) (human (endogenous in HeLa S3 and J-Lat 10.6)) (UniProt P42285); assay: co-IP
T2 sequence: T1 sequence

Flag-HA-MTR4 [3] = target: T1, Flag-HA-MTR4; assay: co-sedimentation
[4] = target: T2, MTR4 (endogenous) (human (endogenous in HeLa S3 and J-Lat 10.6)); assay: co-IP; co-immunoprecipitation of the endogenous proteins with antibodies to ZFC3H1, ZCCHC8, MTR4, RRP6 and RBM7; immunoblot; cells not given
[5] = target: T3, RRP6 (endogenous) (human (endogenous in HeLa S3 and J-Lat 10.6)) (UniProt Q01780); assay: as above
T3 sequence: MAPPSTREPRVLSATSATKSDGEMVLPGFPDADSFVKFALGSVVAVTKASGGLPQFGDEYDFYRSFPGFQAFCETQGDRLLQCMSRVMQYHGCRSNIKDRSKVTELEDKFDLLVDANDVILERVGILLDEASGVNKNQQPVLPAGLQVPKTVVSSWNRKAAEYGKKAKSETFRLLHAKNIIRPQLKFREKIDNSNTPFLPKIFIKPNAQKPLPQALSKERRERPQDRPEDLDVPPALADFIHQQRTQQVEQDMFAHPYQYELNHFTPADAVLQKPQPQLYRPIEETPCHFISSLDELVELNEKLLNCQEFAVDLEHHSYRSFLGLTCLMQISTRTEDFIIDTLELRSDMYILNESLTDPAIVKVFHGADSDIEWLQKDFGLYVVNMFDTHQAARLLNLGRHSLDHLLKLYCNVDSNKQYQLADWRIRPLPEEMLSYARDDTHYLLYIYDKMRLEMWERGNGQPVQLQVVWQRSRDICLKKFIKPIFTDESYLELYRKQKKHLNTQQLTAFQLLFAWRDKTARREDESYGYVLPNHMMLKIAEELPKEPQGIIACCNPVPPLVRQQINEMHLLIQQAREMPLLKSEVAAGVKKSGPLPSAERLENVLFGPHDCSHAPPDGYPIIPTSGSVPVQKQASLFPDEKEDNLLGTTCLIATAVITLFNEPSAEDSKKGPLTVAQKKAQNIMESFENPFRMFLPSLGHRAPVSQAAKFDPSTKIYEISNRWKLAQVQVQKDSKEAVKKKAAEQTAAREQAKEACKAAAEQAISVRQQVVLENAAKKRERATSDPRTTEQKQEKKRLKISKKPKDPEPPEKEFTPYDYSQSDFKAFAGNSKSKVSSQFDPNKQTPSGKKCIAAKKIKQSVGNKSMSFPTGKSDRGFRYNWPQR

Flag-HA-RRP6 (human) [6] = target: T4, Flag-HA-RRP6 (human) (UniProt Q01780); assay: co-IP
T4 sequence: T3 sequence

[7] = target: T3, RRP6 (endogenous) (human (endogenous in HeLa S3 and J-Lat 10.6)); assay: co-IP
Flag-HA-RRP6 (human) [8] = target: T4, Flag-HA-RRP6 (human); assay: co-sedimentation

ZFC3H1 (from UniProt O60293 1-1989) was tested, and the binding (Flag-HA-MTR4 [1]) was “binds”, the binding [2] was “binds” and the binding (Flag-HA-MTR4 [3]) was “binds”. The binding [4] was “binds” and the binding [5] was “binds weakly”.

B1: RRP6 (endogenous) (protein, UniProt Q01780 1-885)
chain: T3 sequence
With B1 the binding (Flag-HA-MTR4 [1]) was “binds”, the binding [2] was “binds” and the binding (Flag-HA-MTR4 [3]) was “binds”. The binding [4] was “binds”.

B2: ZCCHC8 (protein, UniProt Q6NZY4 1-707)
chain: MAAEVYFGDLELFEPFDHPEESIPKPVHTRFKDDDGDEEDENGVGDAELRERLRQCEETIEQLRAENQELKRKLNILTRPSGILVNDTKLDGPILQILFMNNAISKQYHQEIEEFVSNLVKRFEEQQKNDVEKTSFNLLPQPSSIVLEEDHKVEESCAIKNNKEAFSVVGSVLYFTNFCLDKLGQPLLNENPQLSEGWEIPKYHQVFSHIVSLEGQEIQVKAKRPKPHCFNCGSEEHQMKDCPMPRNAARISEKRKEYMDACGEANNQNFQQRYHAEEVEERFGRFKPGVISEELQDALGVTDKSLPPFIYRMRQLGYPPGWLKEAELENSGLALYDGKDGTDGETEVGEIQQNKSVTYDLSKLVNYPGFNISTPRGIPDEWRIFGSIPMQACQQKDVFANYLTSNFQAPGVKSGNKRSSSHSSPGSPKKQKNESNSAGSPADMELDSDMEVPHGSQSSESFQFQPPLPPDTPPLPRGTPPPVFTPPLPKGTPPLTPSDSPQTRTASGAVDEDALTLEELEEQQRRIWAALEQAESVNSDSDVPVDTPLTGNSVASSPCPNELDLPVPEGKTSEKQTLDEPEVPEIFTKKSEAGHASSPDSEVTSLCQKEKAELAPVNTEGALLDNGSVVPNCDISNGGSQKLFPADTSPSTATKIHSPIPDMSKFATGITPFEFENMAESTGMYLRIRSLLKNSPRNQQKNKKASE
In the case of B2, the binding (Flag-HA-MTR4 [1]) is reported as “binds”, the binding (Flag-HA-RRP6 (human) [6]) is reported as “binds” and the binding [2] is reported as “binds”. For the same molecule, the binding [7] was “binds”, the binding (Flag-HA-MTR4 [3]) was “binds” and the binding (Flag-HA-RRP6 (human) [8]) was “binds”. The binding [4] was “binds” and the binding [5] was “binds”.
